Measurements published in PubChem BioAssay AID493014 (National Center for Advancing Translational Sciences (NCATS), 2011).
Hit rate of the full screen: of about 340,000 compounds, about 170 (0.05%) were called active. The shares of active, inactive and inconclusive entries below differ from those in the screen. The call rests on the fitted dose curve; in most records, active means well fitted inhibition curve with a large enough effect in the signal ratio, with a control signal flat (not every such curve was filed as active); inconclusive means small, poorly fitted or top-dose-only effect, or effect the other way, or a change in a side signal; inactive means flat fitted curve, though single readings scatter; the % refers to the signal ratio. Potencies of inconclusive entries are doubtful fits and often do not repeat.

experiment: qHTS Assay to Find Inhibitors of Chronic Active B-Cell Receptor Signaling; conditions: ABC-DLBCL IkBa-CBG/CBR reporter, luminescence ratio (green luciferase fused to IkBa over red control in TMD8 lymphoma cells), 4 h; activity change, negative = inhibition: at 46.1 µM (top of the series);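 on activity change, negative = inhibition: plate controls were basal doxycycline-induced cells for no effect and cells given 10 µM MG132 for full effect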
Procedure, shortened: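 Doxycycline induced both beetle luciferases in TMD8 lymphoma cells; IKK-driven degradation limits the IkappaBalpha-fused green signal, while red luminescence normalises for cell number and nonspecific effects. Compounds tested up to 46 uM, 4 hrs.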
Potency means the concentration at half of the fitted maximal effect.

| Compound | activity change, negative = inhibition | Potency |
| --- | --- | --- |
| O=C(O)COc1ccccc1/C=N/NC(=O)CN1CCN(Cc2ccc(Cl)cc2)CC1 | inconclusive: -5.37% | – |
| Cc1ccc2nc(NC(=O)c3cccs3)sc2c1 | – | inconclusive: 10 µM [falling, partial curve] |
| CCc1ccc(-n2c(SCC(=O)Nc3ccc(C(=O)O)cc3)nnc2-c2ccncc2)cc1 | inactive | – |
| COc1ccc(Cn2nnc3c(C)n[nH]c(=O)c32)cc1 | inconclusive: -0.445% | – |
| O=C(Nc1nc(-c2ccco2)c(-c2ccco2)s1)c1c(F)cccc1Cl | inconclusive: 6.46% | – |
| CC(/C=N/NC(=O)c1cc(-c2cccn2C)n[nH]1)=C\c1ccccc1 | – | inconclusive: 35.5 µM [falling, single point] |
| O=C(C[n+]1cc(-c2ccc(F)cc2)n2c1CCC2)Nc1nc(-c2ccc(F)cc2)cs1 | inconclusive: 0.118% | – |
| COC(=O)Cn1cnc2c1c(=O)n(C)c(=O)n2C | inconclusive: -2.66% | – |
| COc1ccccc1N1CCN(C(=O)C2CCN(S(=O)(=O)c3ccccc3F)CC2)CC1 | inactive | – |
| Cc1csc(-c2coc3cc(O)cc(C)c3c2=O)n1 | – | inconclusive: 0.355 µM [rising, full curve] |
| CC(C)c1cc(C(=O)Nc2cc(Br)ccc2O)no1 | – | inconclusive: 20.6 µM [falling, single point] |
| O=C(N/N=C/c1cccnc1)c1ccccc1Cl | inconclusive: -1.48% | – |
| CC(C)C1S/C(=N/N=C/c2ccco2)NC1=O (stereo not drawn) | inactive | – |
| Cc1ccc(/C=N/Nc2nc3ccccc3s2)o1 | – | inconclusive: 20.6 µM [falling, single point] |
| CCCCSc1nc2ccc(Nc3nc(N4CCOCC4)nc(N4CCOCC4)n3)cc2s1 | inactive | – |
| Cc1ccc(NCC(=O)N/N=C\c2ccc([N+](=O)[O-])o2)cc1 | inactive | – |
| Cc1cc(C(=O)NN)c(C)o1 | – | inconclusive: 35.5 µM [rising, single point] |
| CC1=C(C#N)C(/C=N/OCc2ccc(Cl)cc2)CC(=O)N1 (stereo not drawn) | inconclusive: 7.53% | – |
| Cc1ccc(S(=O)(=O)c2c(N)n(CCC(C)C)c3nc4ccccc4nc23)cc1 | – | inconclusive: 8.2 µM [rising, partial curve] |
| COc1cccc(CNS(=O)(=O)c2ccc3c(c2)N(C)CCO3)c1 | inactive | – |
| C/C(N)=C(/C#N)C(=O)CSc1ccccc1F | – | inconclusive: 25.1 µM [falling, single point] |

| Compound | activity change, negative = inhibition | Potency |
| --- | --- | --- |
| Cc1cc(C)cc(OCc2nnc(SCC(=O)OC(C)C)o2)c1 | – | inconclusive: 23.1 µM [falling, single point] |
| CN(C)S(=O)(=O)c1ccc(C(=O)N2CCN=C2SCc2cccnc2)cc1 | – | inconclusive: 29.1 µM [falling, single point] |
| Cc1occc1-c1nnc(-c2cc([N+](=O)[O-])cc([N+](=O)[O-])c2)o1 | inactive | – |
| CC(=O)Nc1ccc(NS(=O)(=O)c2ccc(C)cc2)cc1[N+](=O)[O-] | inconclusive: 4.97% | – |
| Cc1cc(NC(=O)COC(=O)CSCc2ccc(Cl)c(Cl)c2)no1 | – | inconclusive: 13 µM [rising, partial curve, poor fit] |
| CC1c2ccsc2CCN1S(=O)(=O)c1cccs1 (stereo not drawn) | inactive | – |
| CCOC(=O)Cc1csc(-n2sc3ccccc3c2=O)n1 | inactive | – |
| Cc1ccc(N(CC2CO2)S(=O)(=O)c2ccc([N+](=O)[O-])cc2)cc1 (stereo not drawn) | inconclusive: -17.7% | – |
| Cc1nc2ccccc2n1C(=O)c1cc(-c2ccc(Br)cc2)nc2ccccc12 | inconclusive: 8.28% | – |
| COc1ccc(CNC(=O)CNC(=O)c2cccs2)c(OC)c1 | inconclusive: 2.68% | – |
| CCOC(=O)CNc1c(-c2ccccc2)nc2ccc(Cl)cn12 | – | inconclusive: 12.6 µM [falling, single point] |
| CC1Cc2nc(SCC(=O)c3ccccc3)n(Cc3ccccc3)c(=O)c2S1 (stereo not drawn) | – | inconclusive: 9.2 µM [rising, partial curve] |
| CC1=C(C(=O)OC2CCC(C)CC2)C(c2ccc(O)c([N+](=O)[O-])c2)NC(=O)N1 (stereo not drawn) | inactive | – |
| COCCNC(=S)N1CCN(c2ccc(Cl)cc2)CC1 | inconclusive: -0.102% | – |
| COc1ccc(S(=O)(=O)Nc2nc3ccccc3nc2NCC2CCCO2)cc1 (stereo not drawn) | inconclusive: -3.18% | – |
| COc1ccc2sc(-c3ccc(SC)cc3)c(C#CCO)c2c1 | inconclusive: -0.389% | – |
| COc1ccc(S(=O)(=O)N(C)CC(=O)N2CCC(C(N)=O)CC2)cc1Cl | inconclusive: 7.45% | – |
| CN(Cc1nc(Cc2cccc(F)c2)no1)CC1COCCO1 (stereo not drawn) | inconclusive: 13% | – |
| COc1cc(/C=N/NC(N)=S)cc(Br)c1OCc1ccccc1F | – | inconclusive: 16.4 µM [falling, single point] |
| CCN(CC)CCCn1c(SCC(=O)Nc2cccc(F)c2)nnc1-c1ccoc1C | inactive | – |
| CS(=O)(=O)N(CC(=O)N1CCN(c2ccccc2)CC1)c1ccc(Cl)c(C(F)(F)F)c1 | inconclusive: 13.8% | – |

| Compound | activity change, negative = inhibition | Potency |
| --- | --- | --- |
| O=S(=O)(Nc1nc2ccccc2nc1NCC1CCCO1)c1ccc(F)cc1 (stereo not drawn) | inconclusive: 20% | – |
| O=C(Nc1ccccc1)c1cccc2c(Br)cccc12 | inconclusive: 2.62% | – |
| CCOc1ccccc1NC(=O)C(C)N1C(=O)c2ccccc2S1(=O)=O (stereo not drawn) | inactive | – |
| C=CCN1C(=S)N[C@@H]2CS(=O)(=O)C[C@@H]21 | inconclusive: -1.92% | – |
| Cc1cc(OCc2nc3ccccc3s2)ccc1N | – | inconclusive: 25.1 µM [falling, partial curve] |
| CCN(Cc1nc2ccccc2c(=O)[nH]1)C(=O)c1cc(C2CC2)nn1-c1ccccc1 | inconclusive: 14% | – |
| Cc1cc(C)cc(NC(=O)CCc2ccc(C)o2)c1 | inconclusive: 1.86% | – |
| CC(C)CC(=O)Nc1ccc(-c2cn3ccsc3n2)cc1 | inactive | – |
| COc1cccc(-c2nc(-c3ccc(NC(=O)Cc4ccccc4OC)cc3)no2)c1 | – | inconclusive: 29.1 µM [falling, single point] |
| CC(Oc1ccc(Cl)cc1Cl)C(=O)N(Cc1ccco1)C1CCS(=O)(=O)C1 (stereo not drawn) | inactive | – |
| C/C(=N/OCO/N=C(\C)c1ccc(F)cc1F)c1ccc(F)cc1F | inconclusive: 0.432% | – |
| Cc1ccc(S(=O)(=O)N2CCOCC2)cc1NC(=O)COC(=O)C1=COCCO1 | inconclusive: -24.7% | – |
| O=C(NCCc1ccccc1)/C(=N\O)c1ccccc1 | inconclusive: -16.1% | – |
| Cc1ccc(-c2nc3c4ccccc4n(Cc4cccc(Cl)c4)c(=O)n3n2)cc1 | – | inconclusive: 0.282 µM [rising, full curve, poor fit] |
| O=C(CSC1=NNC(c2ccccn2)S1)Nc1ccc(C(F)(F)F)cc1 (stereo not drawn) | inactive | – |
| Cc1nccn1-c1c([N+](=O)[O-])c(=O)n(C)c2ccccc12 | inconclusive: 16.5% | – |
| COc1cc(C=O)ccc1Oc1nc(Nc2ccc(F)cc2F)nc(N2CCOCC2)n1 | – | inconclusive: 11.2 µM [falling, partial curve, poor fit] |
| Cc1ccc([C@@H]2[C@@H]3C(=O)N(C)C(=O)[C@@H]3[C@]3(C)C(=O)N(Cc4ccc(-c5ccccc5)cc4)CC(=O)N23)o1 | inactive | – |
| Cc1ccc(-c2csc(Nc3ccccn3)n2)cc1 | – | inconclusive: 28.2 µM [falling, single point] |
| CCOc1ccc(NC(=O)N2CCC(c3nc4ccccc4o3)CC2)cc1 | inactive | – |
| Cc1ccc(-c2ccc(CCC(=O)O)n2-c2ccc(C(=O)O)cc2)cc1 | – | inconclusive: 20 µM [falling, single point] |

| Compound | activity change, negative = inhibition | Potency |
| --- | --- | --- |
| Nc1ncnc2c1ncn2CCNCCc1ccccc1 | inconclusive: 3.93% | – |
| O=C(O)c1csc(-c2cccc(Cl)c2)n1 | inconclusive: 4.64% | – |
| CC(C)C(=O)OC/C(O)=C(\C#N)c1nc2ccccc2[nH]1 | inconclusive: -15.5% | – |
| CC(C)C(c1nnnn1C(C)(C)C)N1CCN(c2cccc(Cl)c2)CC1 (stereo not drawn) | inactive | – |
| C(#Cc1ccccc1)CN1CCCCC1 | inactive | – |
| CSc1ccccc1OCc1cc(C(=O)N(C)C(C)c2ccccn2)no1 (stereo not drawn) | inconclusive: -9.03% | – |
| CC(=O)NCCC(=O)N(Cc1ccccc1)c1nc2c(C)cccc2s1 | inconclusive: -0.372% | – |
| CCO[C@H]1OC(C(=O)N2CCN(Cc3ccc4c(c3)OCO4)CC2)=C[C@@H](c2csc3ccccc23)[C@@H]1CCCO | inactive | – |
| Cc1ccc(OC(=O)COc2ccccc2)c(-n2nc3ccccc3n2)c1 | inconclusive: 10.9% | – |
| CCCCC(=O)OCCNC(=O)c1cc2ccccc2oc1=O | inactive | – |
| CCN(CC(=O)Nc1ccccc1OC)C(=O)c1cc(S(=O)(=O)N2CCCCCC2)ccc1OC | inactive | – |
| NNC(=O)c1ccc(CSc2cccc3cccnc23)cc1 | inactive | – |
| COc1ccc(-c2noc(CCC(=O)Nc3cc(Cl)c(OC)cc3OC)n2)cc1 | inconclusive: -3.19% | – |
| O=C(CN1CCN(C(=O)c2ccco2)CC1)Nc1ccccc1-c1ccccc1 | inconclusive: -16.8% | – |
| Cc1ccn2c(NC(=O)c3ccco3)c(-c3ccccc3)nc2c1 | – | inconclusive: 29.1 µM [falling, single point] |
| Cc1cccc(NC(c2ccc(O)cc2)c2ccc3ccc(C)nc3c2O)n1 (stereo not drawn) | – | inconclusive: 29.1 µM [falling, single point] |
| Cc1ccc2c(c1)c1c3n2CCN(C(=O)CCl)C3CCC1 (stereo not drawn) | inconclusive: -3.91% | – |
| O=C(N/N=C/c1ccncc1)c1ccccc1 | – | inconclusive: 31.6 µM [falling, single point] |
| Cc1ccc(CNC(=O)CN(C)S(=O)(=O)c2cccc3cccnc23)cc1 | inconclusive: -1.05% | – |
| O=C(NC(=S)N1CCN(c2ccc([N+](=O)[O-])cc2Cl)CC1)c1ccco1 | inactive | – |

Copied from the list:
In Potency, `Cc1ccn2c(NC(=O)c3ccco3)c(-c3ccccc3)nc2c1` is entered as inconclusive: 29.1 µM [falling, single point]
In activity change, negative = inhibition, `CC(C)C(=O)OC/C(O)=C(\C#N)c1nc2ccccc2[nH]1` is entered as inconclusive: -15.5%
In activity change, negative = inhibition, `CC(C)C(c1nnnn1C(C)(C)C)N1CCN(c2cccc(Cl)c2)CC1` (stereo not drawn) is entered as inactive
In activity change, negative = inhibition, `CSc1ccccc1OCc1cc(C(=O)N(C)C(C)c2ccccn2)no1` (stereo not drawn) is entered as inconclusive: -9.03%

3 structures out of the list, sorted by count of non-hydrogen atoms, falling.

| Compound | activity change, negative = inhibition | Potency |
| --- | --- | --- |
| Cc1ccc(CNC(=O)CN(C)S(=O)(=O)c2cccc3cccnc23)cc1 | inconclusive: -1.05% | – |
| CCCCC(=O)OCCNC(=O)c1cc2ccccc2oc1=O | inactive | – |
| Nc1ncnc2c1ncn2CCNCCc1ccccc1 | inconclusive: 3.93% | – |
